# Data published in patent publication US20130337438A1.
# Molecular target: capsid consisting only of L1 (human papillomavirus, type not stated)
# Experiment: ELISA on immobilized L1-only capsid, purified antibody
binder,measurement,value
"monoclonal antibody 13B (antibody, V domains shown) VH: DVQLQESGPGLVKPSQSLSLSCTVTGYSITSDSAWNWIRQFPGNKLEWMGYITFSGSTNYNPSLKSRLSITRDTSKNQFFLQLNSVTTEDTATYYCTGPFLDYWGQGTTLTVSS VL: DVVMTQTPLSLPVSLGDQATISCRSSLSLVLSNRITYLQWYLQKPGQSPKLLIYKVSNRFSGVPDRFSGSGSGTDFTLKISRVEAEDLGVYFCSQSSHFPWTFGGGTKLEIKR",binding,no binding (tested: 250 ng/well)

# These are yes or no findings as the source states them, for the method shown.
